# From patent US20210161900A1, “COMPOSITIONS AND METHODS FOR THE TREATMENT OF SENESCENT TUMOR CELLS” (Duke University, priority 2018, published 2021)
# At least one structure is not confirmed: it was looked up by name or label, or the drawing left a doubt.
# How the values were obtained:
# HCC827 cells = assay: Immunoblot of senescent and apoptotic markers in palbociclib-treated HCC827 cells with control or THBD shRNA; type: cell-based, human; conditions: increasing doses of palbociclib
# [1] = test system: THBD, PAR1, PC and thrombin in HCC827, H1650 and PC9 cells; assay: Western analysis of THBD signaling axis in palbociclib-treated NSCLC cells; type: cell-based, human; conditions: increasing doses of palbociclib, 7 days
# [2] = test system: THBD, PAR1, PC and thrombin in MCF7, MDA-MB-231 and AU565 cells; assay: Western analysis of THBD signaling components in palbociclib-treated breast cancer cells; type: cell-based; conditions: MCF7, MDA-MB-231, AU565; increasing doses of palbociclib, 7 days
# [3] = test system: stage IV squamous cell lung cancer; conditions: cited from earlier work
# [4] = test system: HCC827, HC1650 and PC9 cells; assay: Palbociclib-induced senescence in NSCLC cell lines (morphology, SA-βgal staining, immunoblot of pRB, p21, p16); type: cell-based, human
# NSCLC = conditions: monotherapy for NSCLC; cited from earlier work
# [5] = test system: MCF7, AU565 and MDA-MB-231 cells; assay: Palbociclib-induced senescence in breast cancer cell lines (morphology, SA-βgal staining, immunoblot of pRB, p21, p16); type: cell-based
# MCF7 cells = assay: Immunoblot of senescent and apoptotic markers in palbociclib-treated MCF7 cells with NTC or THBD shRNA; type: cell-based; conditions: increasing doses of palbociclib
# advanced NSCLC = conditions: cited from earlier work
# [6] = test system: ER+ and HER2-metastatic breast cancer; conditions: after two years of treatment; cited from earlier work
smiles,measurement,setting,value
CC(=O)c1c(C)c2cnc(Nc3ccc(N4CCNCC4)cn3)nc2n(C2CCCC2)c1=O [palbociclib],"p21 and p16 (immunoblot), control cells",HCC827 cells; HCC827 scrambled control,dose-dependent increase
same,"caspase-3 cleavage, THBD-knockdown cells",HCC827 cells; HCC827 shTHBD,strongly elevated
same,"p21 and p16 (immunoblot), THBD-knockdown cells",HCC827 cells; HCC827 shTHBD,minimal changes
same,"expression of THBD signaling axis: THBD, PAR1, PC, thrombin (western blot)",[1],upregulated in senescent NSCLC cells in a dose-dependent manner
same,"expression of THBD and its signaling components PAR1, PC, thrombin (western blot)",[2],up-regulated in a dose-dependent manner
same,patients with partial responses,[3]; of 32 patients treated,2
same,patients with stable disease,[3]; of 32 patients treated,14
same,"duration of stable disease, on average",[3]; the 14 patients with stable disease,1.7 months
same,growth and morphology of treated cells compared to untreated cells,"[4]; NSCLC cell lines, sub-micromolar concentrations of palbociclib",cytostatic inhibition and appeared larger and flatter
same,p21 and pRb hypophosphorylation (immunoblot),"[4]; all three NSCLC cell lines, 0.1, 0.5, 1 μM palbociclib, 7 days",dose-dependent increases
same,SA-βgal staining,"[4]; all three NSCLC cell lines, palbociclib 7 days",robust
same,clinical outcome,NSCLC,stable disease rather than partial or complete responses
same,growth and morphology of treated cells compared to non-treated cells,"[5]; MCF7, AU565, MDA-MB-231, increasing doses of palbociclib",cytostatic inhibition and appeared larger and flatter
same,"p21, p16, and Rb hypophosphorylation (immunoblot)","[5]; MCF7, MDA-MB-231, AU565, 0.1, 0.5, 1 μM palbociclib, 7 days",dose-dependent increase
same,SA-βgal staining,"[5]; MCF7, MDA-MB-231, AU565, palbociclib 7 days",robust
same,"Rb phosphorylation and p21 (immunoblot), control (NTC) cells",MCF7 cells; MCF7 NTC,dose-dependent decrease in Rb phosphorylation and increase in p21
same,"Rb phosphorylation and p21 (immunoblot), THBD-knockdown cells",MCF7 cells; MCF7 shTHBD,noticeable rescue in Rb phosphorylation and minimal change in p21 levels
same,"caspase-7 cleavage, THBD-knockdown cells",MCF7 cells; MCF7 shTHBD,significant increase
same,responses,advanced NSCLC; 19 previously treated patients with advanced NSCLC,no responses
same,patients with stable disease,advanced NSCLC; of 19 patients,8 patients
same,share of treated patients with adverse side effects or resistance and disease progression,[6],nearly half
